Assay results: PubChem BioAssay AID2685 (National Center for Advancing Translational Sciences (NCATS), 2010)
Out of some 320,000 compounds screened, about 2,100 (0.66%) were called active. The inconclusive results got no clear call from the source; some entries with a clear call stand among them for comparison. The call rests on the fitted dose curve; in most records, active means well fitted inhibition curve with a large enough effect in the signal ratio, with a control signal flat (not every such curve was filed as active); inconclusive means small, poorly fitted or top-dose-only effect, or effect the other way, or a change in a side signal; inactive means flat fitted curve, though single readings scatter; the % refers to the signal ratio. Potencies beside an inconclusive call are fits to weak or partial responses and may not hold up.

test: qHTS Assay for Lipid Storage Modulators in Drosophila S3 Cells; conditions: BODIPY lipid droplet fluorescence, 18-24 h, cells fed with added oleic acid; lipid storage change, negative = inhibition: at 46.1 µM (top of the series) unless noted
How it was run: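 Drosophila S3 cells got compounds at several concentrations plus oleic acid (400 uM solution). Laser-scanning cytometry with 488 nm excitation read lipid droplets at 500-530 nm and cells at 575-640 nm. Percent activity was relative to 20 uM Triacsin C.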
On the % scale 0 is the no-effect control and ±100 the full control effect; potency means the concentration at half of the fitted maximal effect.

SMILES	lipid storage change, negative = inhibition	outcome	Potency
CCC(C)(C)C1CCC(NC(=O)N2CCN(c3ccccc3O)CC2)CC1 (configuration not stated)	inconclusive: -50.5%		
COc1ccc(NC(=O)CSc2nnc(Cc3ccc(C)cc3)c(=O)n2N)cc1	inconclusive: 18.2%		
C=CCn1c(=O)c2ccccc2n2c(SCc3csc(-c4ccccc4)n3)nnc12	inconclusive: 13.5%		
O=C(N=C1SC2CS(=O)(=O)CC2N1CCc1ccccc1)C1CCCCC1 (configuration not stated)		inactive [at 46.1 µM]	
CCCOc1ccccc1N/C(N)=N/c1nc(C)cc(C)n1			inconclusive: 14.6 µM [falling, partial curve, poor fit]
CCOc1ccc(CNS(=O)(=O)c2ccc(-c3coc(C)n3)cc2)cc1	inconclusive: 25.2%		
O=C(COc1ccc(S(=O)(=O)NC2CCCCC2)cc1Cl)NCc1cccnc1			inconclusive: 8.2 µM [falling, partial curve, poor fit]
c1ccc(OCC2CCNCC2)nc1	inconclusive: 148%		
CN1C(=O)[C@H]2[C@@H](/C=C/c3ccccc3)N3C(=O)CN(CC4CC4)C(=O)[C@@]3(C)[C@H]2C1=O	inconclusive: 48.4%		
COc1cc(C(=O)OCC(=O)N(CC(C)C)C2CCS(=O)(=O)C2)cc(OC)c1C (configuration not stated)			inconclusive: 10.3 µM [activator, partial curve]
O=C1CN(S(=O)(=O)c2ccccc2Cl)CCN1	inconclusive: 21.9%		
Cc1cccnc1NC(=O)CCCc1c[nH]c2ccccc12	inconclusive: 11.5%		
CC(NC(=O)/C(=C/c1ccc(OC(F)F)cc1)c1ccccc1)c1ccccc1 (configuration not stated)			inconclusive: 16.4 µM [falling, single point]
Cc1cc(OCC(O)CN2CCCC2)cc(C)c1Cl (configuration not stated)			inconclusive: 29.1 µM [activator, single point]
CCN(CC)CCCN(C(=O)c1cccs1)c1nc(-c2ccc(OC)cc2)cs1			inconclusive: 4.11 µM [activator, single point]
Cc1ccc2nc(SCC(=O)c3ccc(Cl)s3)[nH]c2c1			inconclusive: 25.9 µM [activator, single point]
Cc1cccc(C)c1N1CCN(S(=O)(=O)c2ccccc2)CC1	inconclusive: 7.75%		
CCn1ccc(C(=O)NC2CCCC2)n1	inconclusive: 4.37%		
COc1cc(OC)c2cc(C(=O)N/N=C/c3cccc(OC)c3O)[nH]c2c1	inconclusive: -15.8%		
N#Cc1ccc(NCCc2ccccn2)c([N+](=O)[O-])c1			inconclusive: 2.59 µM [cytotoxic, full curve]
COc1cccc(CNC(=O)CCC(=O)N2CC(C)Oc3ccccc32)c1OC (configuration not stated)			inconclusive: 32.6 µM [falling, single point]
O=c1cc(CSc2ccccc2)nc(-c2ccccc2)[nH]1			inconclusive: 4.61 µM [falling, partial curve, poor fit]
CC(=O)N1CCc2cc(Br)cc(S(=O)(=O)N3CCCCC3)c21		inactive [at 46.1 µM]	
O=C(O)COc1ccccc1/C=C1\SC(=O)N(Cc2ccc(F)cc2)C1=O	inconclusive: 130%		
CC(=O)c1ccc(S(=O)(=O)Nc2cccc(-c3cn4c(n3)SCC4)c2)cc1	inconclusive: 5.37%		
COc1ccc(C(=O)NCC(c2ccco2)N2CCc3ccccc32)cc1OC (configuration not stated)	inconclusive: 9.11%		

SMILES	lipid storage change, negative = inhibition	outcome	Potency
CN(C)CCNC(=O)/C(=C/c1cccc([N+](=O)[O-])c1)NC(=O)c1ccccc1	inconclusive: 11.9%		
O=C(Nc1ccccn1)c1nc(-c2ccccc2)n(-c2ccccc2)n1	inconclusive: 28.6%		
OCC(O)[C@@H](O[C@H]1O[C@H](CO)[C@@H](O)[C@H](O)[C@H]1O)[C@H](O)[C@@H](O)CO (some centres not stated)	inconclusive: -7.72%		
Cc1ccc(C(=O)NC2CCCCCC2)o1	inconclusive: 0.952%		
Cc1cc(=O)n2nc(N3CCC(C(=O)NCc4ccc(F)cc4)CC3)sc2n1	inconclusive: 8.93%		
CCN(CC)CCNC(=O)c1ccc(NC(=O)c2cc(S(=O)(=O)N3CCCCC3)ccc2C)cc1	inconclusive		
Cc1cccc(-n2c(SCC(=O)N3CCC(C(=O)O)CC3)nc3ccccc3c2=O)c1C	inconclusive: -16.6%		
CC(C)NC(=O)CC(=O)N/N=C/c1ccc(F)cc1			inconclusive: 0.461 µM [activator, full curve, poor fit]
CCCOC(=O)c1ccc(NC(=O)C(CC)CC)cc1	inconclusive: -14.6%		
Cc1ccc(C)c(NC(=O)CN(C)C(=O)CSC(C)C(=O)Nc2cc(C)on2)c1 (configuration not stated)	inconclusive: 0.155%		
Cc1ccccc1C(=O)NC(=S)NC1CCS(=O)(=O)C1 (configuration not stated)	inconclusive: 44.5%		
CC(C)CC(=O)N1CCN(S(=O)(=O)c2ccc(Cl)cc2)CC1	inconclusive: -11.5%		
O=C(CSc1ncnc2c1nnn2-c1ccc(F)cc1)NCC1CCCO1 (configuration not stated)	inconclusive: -1.86%		
CCN(CC(=O)NCc1ccc(Cl)cc1)C(=O)c1ccc(S(=O)(=O)NCc2ccco2)cc1			inconclusive: 29.1 µM [falling, single point]
Cc1ccc(CN2CCN(/N=C/c3ccc(C(=O)O)cc3)CC2)c(C)c1			inconclusive: 32.6 µM [falling, single point]
CCOc1ccc(NC(=O)[C@@H](NC(=O)OCc2ccccc2)[C@@H](C)CC)cc1			inconclusive: 0.517 µM [activator, full curve, poor fit]
Cc1ccc(-c2cc(-c3ccc(F)cc3)c(C#N)c(N)n2)o1	inconclusive: 0.186%		
COc1ccc(CNS(=O)(=O)c2ccc(-c3cnc(C4CC4)o3)cc2)cc1			inconclusive: 0.58 µM [activator, single point]
CN1C(=O)c2ccccc2N(C)C1c1cccc(O)c1 (configuration not stated)			inconclusive: 29.1 µM [activator, single point]
Cc1cc(C)c(S(=O)(=O)c2ccccc2)c(N2CCOCC2)n1	inconclusive: -7.84%		
N#CCOC(=O)[C@H](Cc1c[nH]c2ccccc12)NS(=O)(=O)c1ccc(Cl)cc1	inconclusive: 11.3%		
O=C(COc1ccc2c3c(c(=O)oc2c1)CCC3)N1CCN(c2ccc(F)cc2)CC1	inconclusive: 20%		
CN1C(=O)/C(=C2\SC(=S)N(C(CCC(=O)O)C(=O)O)C2=O)c2ccccc21 (configuration not stated)	inconclusive: -29.9%		
Cn1cc(Br)c(C(=O)NN2C(=O)C3C4C=CC(C5CC45)C3C2=O)n1 (configuration not stated)			inconclusive: 3.66 µM [falling, single point]
Cc1ccc(NC(=O)CN2CCC(C(N)=O)CC2)cc1[N+](=O)[O-]	inconclusive: 4.96%		
CCc1nc2ccccc2c(NC(=O)CN2CC(C)CC(C)C2)c1C (configuration not stated)	inconclusive: -5.07%		

Random excerpt: 4 entries already listed
SMILES	lipid storage change, negative = inhibition	outcome	Potency
CN(C)CCNC(=O)/C(=C/c1cccc([N+](=O)[O-])c1)NC(=O)c1ccccc1	inconclusive: 11.9%		
Cc1ccc(CN2CCN(/N=C/c3ccc(C(=O)O)cc3)CC2)c(C)c1			inconclusive: 32.6 µM [falling, single point]
COc1ccc(C(=O)NCC(c2ccco2)N2CCc3ccccc32)cc1OC (configuration not stated)	inconclusive: 9.11%		
O=C(Nc1ccccn1)c1nc(-c2ccccc2)n(-c2ccccc2)n1	inconclusive: 28.6%		

Remaining list, next part:

SMILES	lipid storage change, negative = inhibition	outcome	Potency
O=C(CSc1ccc(-c2ccccn2)nn1)c1ccc(F)cc1	inconclusive: 5.13%		
N=c1oc2ccc(Br)cc2cc1C(=O)NCc1ccccc1	inconclusive: -20.1%		
O=C(NCCCn1ccnc1)c1cccc(Br)c1	inconclusive: 16.2%		
COc1cccc2c(=S)c(CCC(C)=O)c(C)[nH]c12	inconclusive: 3.15%		
CCCn1c(N2CCN(C(=O)N3CCCCC3)CC2)nc2ccccc21	inconclusive: 1.36%		
COC(=O)C1CN(S(=O)(=O)c2ccc(NC(C)=O)cc2)CCS1 (configuration not stated)			inconclusive: 1.16 µM [activator, partial curve, poor fit]
Cc1ccc2nc(-c3cccc(N)c3)oc2c1			inconclusive: 2.31 µM [activator, partial curve]
CCn1cc(C(=O)NC2CCC(C)CC2)c(=O)c2cc(S(=O)(=O)N3CCCCC3)ccc21 (configuration not stated)			inconclusive: 1.64 µM [rising, partial curve]
Cc1cccc(N2CCN(C(=O)C3COc4ccccc4O3)CC2)c1C (configuration not stated)	inconclusive: 1.48%		
O=C(C(Cc1ccccc1)n1cccc1)N1CCN(Cc2ccccc2)CC1 (configuration not stated)	inconclusive: 31.5%		
COc1ccc(NS(=O)(=O)c2cc(NC(=O)c3nc4nc(C)cc(C)n4n3)ccc2C)cc1	inconclusive: 17.2%		
CC12CCC(=O)N1C(C(=O)Nc1ccc(Br)cc1Cl)CS2 (configuration not stated)	inconclusive: 0.7%		
CN1C(=O)c2cccc3c(S(=O)(=O)N4CCCC4C(=O)O)ccc1c23 (configuration not stated)	inconclusive: 12.9%		
O=C(/C=C/c1cccs1)N1CCC2(CC1)Oc1ccc(F)cc1C(=O)C21CC(c2ccc(Cl)cc2)=NO1 (configuration not stated)	inconclusive: 43.3%		
Cc1ccc(S(=O)(=O)N2CCC(C(=O)Nc3ccc4c(c3)OCO4)CC2)cc1			inconclusive: 0.146 µM [activator, full curve, poor fit]
CC1(C)CC(NC(=O)c2ccc3c(c2)OCO3)CC(C)(C)N1	inconclusive: 99.8%		
O=C(OCc1nnc(-c2ccccc2)o1)c1cc(F)c(F)cc1Cl	inconclusive: 55.3%		
COc1cccc(-c2nn3c(-c4cc(C)[nH]n4)nnc3s2)c1	inconclusive: -28.6%		
CCOC(=O)COc1coc(CN2CCN(c3ccccc3)CC2)cc1=O	inconclusive: 96.4%		
CCOC(=O)CSc1ncnc2c(C(=O)OCC)c3n(c12)CCC3	inconclusive: 16.8%		
Cc1ccc2c(c1)cc(C(=O)NCc1ccccc1)n2C	inconclusive: -100%		
CC(C)c1ccccc1NC(=O)c1ccccc1NC(=O)C1CCCCC1	inconclusive: 15.7%		
O=C(CN1CCOCC1)Nc1ccc(Br)cn1	inconclusive: -80.3%		
CCn1c2ccccc2c2cc(NC(=O)COc3ccccc3)ccc21			inconclusive: 0.259 µM [activator, full curve]
O=S(=O)(c1ccc(=S)[nH]c1)N1CCCCC1			inconclusive: 20.6 µM [activator, single point]
